# Among all 2,100 compounds or so, about 590 (28%) were called active. The inconclusive results got no clear call from the source; some entries with a clear call stand among them for comparison. Calls follow the shape of the dose curve; as a rule, active = well fitted inhibition curve with a large enough effect; inconclusive = small, poorly fitted or top-dose-only effect; inactive = flat fitted curve, though single readings scatter. Where the call is inconclusive, the potency comes from a doubtful curve fit.
# Sequences of proteins named here, by UniProt entry; tags and fusion partners are left off. A change or cut given only in a name is not applied to a line headed by its entry.
# UniProt Q8IUX4: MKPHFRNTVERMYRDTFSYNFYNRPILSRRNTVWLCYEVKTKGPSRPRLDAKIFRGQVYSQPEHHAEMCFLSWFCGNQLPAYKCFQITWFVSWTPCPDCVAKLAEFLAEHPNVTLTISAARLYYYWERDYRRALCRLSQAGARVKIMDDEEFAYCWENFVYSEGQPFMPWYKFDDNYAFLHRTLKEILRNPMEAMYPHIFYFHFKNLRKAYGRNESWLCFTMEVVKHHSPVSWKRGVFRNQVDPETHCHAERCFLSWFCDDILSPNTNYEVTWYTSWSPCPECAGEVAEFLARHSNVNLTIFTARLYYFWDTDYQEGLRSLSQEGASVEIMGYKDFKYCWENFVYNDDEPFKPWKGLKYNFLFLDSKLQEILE
# Molecular target: DNA dC->dU-editing enzyme APOBEC-3F (Homo sapiens) (UniProt Q8IUX4)
# Test: qHTS for inhibitors of Vif-A3F interactions: Cherry picks; also: nearly all actives have a fitted effect of over 70% in size;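 as to max response: % of control where 0% means no effect; active compounds raise eYFP fluorescence by blocking Vif-driven A3F loss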
# Settings: HeLa A3F-eYFP + Vif (tagged APOBEC3F with the HIV-1 protein that degrades it), eYFP fluorescence, 24 h
# Procedure, shortened: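 Read-out: yellow fluorescence (ex 488 nm, em 500-530 nm) by laser-scanning cytometer after 24 h compound exposure, several concentrations, at 37 deg C. Cells: HeLa line stably co-expressing Vif and C-terminally eYFP-tagged A3F; MG132 served as positive control.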
# Potency is read from the fitted curve at half-maximal effect.
Structure (SMILES),Potency,max response
O=C(/C=C/c1ccc([N+](=O)[O-])o1)NNC(=O)c1ccc(F)cc1,"inconclusive: 17.7 µM [inhibitor, single point]",
COc1ccc(NC(=O)COC(=O)c2cc(OC)c(OC)cc2NC(=O)c2ccco2)cc1OC,"inconclusive: 9.94 µM [inhibitor, partial curve]",
COc1cccc(N2CC(O)=C(c3nc4ccccc4s3)C2=N)c1,active: 5.59 µM,
CC(C)n1c(O)c(N=Nc2ccc(Cl)nn2)c2ccccc21,active: 20.6 µM,
COc1ccc2[nH]cc(/C=C/c3cc[n+](C)cc3)c2c1,active: 13 µM,
CCOC(=O)C(=Cc1ccc(-n2ccnc2)cc1)C(=O)OCC,"inconclusive: 14 µM [inhibitor, single point]",
COc1nc(-c2ccccc2)cc(-c2ccc3c(c2)OCO3)c1C#N,"inconclusive: 3.96 µM [inhibitor, single point]",
COc1cc2cc(-c3ccc(OC)c(OC)c3C)nc(N)c2cc1OC,"inconclusive: 1.58 µM [inhibitor, full curve]",
Cc1ccc(S(=O)(=O)Nc2cc(Cl)c(O)c3ncccc23)cc1,,inactive: -26.9%
Cc1ccc(/C=C2/NC(=O)N(Cc3ccccc3F)C2=O)s1,"inconclusive: 16.4 µM [inhibitor, single point]",
CCOC(=O)c1sc(NC(=S)NC(=O)c2ccco2)nc1C,,inactive: 0.261%
COc1ccc(OC)c(-c2cc(-c3cccnc3)nc(N)c2C#N)c1,"inconclusive: 3.96 µM [inhibitor, full curve, poor fit]",
CC1=CC(C)(C)Nc2ccc(OC(=O)CN3C(=O)C4CCCCC4C3=O)cc21 (configuration not stated),"inconclusive: 20.6 µM [inhibitor, single point]",
CCOC(=O)c1c(C)sc(-c2c(-c3ccccc3)[nH]c3[nH]c(=O)[nH]c(=O)c23)c1O,,inactive: -22.6%
O=C1CCC/C(=N/NC(=O)c2sc3ccccc3c2Cl)C1,"inconclusive: 14 µM [inhibitor, single point]",
CCOC(=O)c1cc2n(c1/N=C/N(C)C)-c1ccccc1C2=O,active: 18.4 µM,
CCCCN(C(=O)c1ccc([N+](=O)[O-])s1)c1c(N)n(CCCC)c(=O)[nH]c1=O,,inactive: 3.55%
CC(C)(C)OC(=O)NCc1ccc(NC(=O)c2nc[nH]c2C(=O)NCCCNC(=O)c2[nH]cnc2C(=O)Nc2ccc(CNC(=O)OC(C)(C)C)cc2)cc1,"inconclusive: 17.7 µM [inhibitor, single point]",
COc1ccc(C(=O)c2sc3nc4c(c(C(F)(F)F)c3c2N)CN(C(C)=O)CC4)cc1OC,active: 23.1 µM,
O=[N+]([O-])c1ccccc1C1Nc2cccc3cccc(c23)N1,,inactive: 1.22%
CCCN1CCC(=NNc2ccc(S(=O)(=O)N3CCOCC3)cc2[N+](=O)[O-])CC1,"inconclusive: 9.94 µM [inhibitor, partial curve]",
CSc1nsc(/C=C/Nc2ccc(O)cc2C)c1C#N,"inconclusive: 29.1 µM [inhibitor, single point]",
CCOC(=O)/C=c1\s/c(=C\c2ccccc2C)c(=O)n1CC(=O)NCc1ccc2c(c1)OCO2,"inconclusive: 15.8 µM [inhibitor, single point]",
Cc1ccc(C=NNC(=O)c2cc(-c3cccnc3)nc3ccccc23)o1,"inconclusive: 4.98 µM [inhibitor, partial curve]",

Structure (SMILES),Potency,max response
COc1cccc(/C=N/n2c(C3CCCCC3)n[nH]c2=S)c1O,,inactive: 2.43%
COC(=O)c1sccc1NC(=S)Nc1cc(C)cc(C)c1,,inactive: -0.135%
C/C(=N\NC(=O)C(C)n1nc(C)c([N+](=O)[O-])c1C)c1ccccc1O (configuration not stated),,inactive: 0.94%
COc1ccc(C(=O)Nc2cccc(/C=C/c3nc4ccccc4c(=O)[nH]3)c2)cc1,active: 12.5 µM,
Cc1ccc(CNc2nc3ccc(Cl)cc3n3nnnc23)cc1,"inconclusive: 29.1 µM [inhibitor, single point]",
CCCCCCCNc1ccc(/C=C/c2ccnc3ccccc23)cc1,active: 20.6 µM,
COc1cccc(C2Nc3ccc4ccccc4c3C3=C2C(=O)CCC3)c1O (configuration not stated),"inconclusive: 23.1 µM [inhibitor, single point]",
N#Cc1c(NC(=O)/C=C/C(=O)O)sc2c1CCN(Cc1ccccc1)C2,,inactive: -10.7%
Cc1sc2nc(CSCC(=O)Nc3ccccc3C#N)[nH]c(=O)c2c1C,,inactive: -12.7%
O=C(N/N=C/c1cccc2ccccc12)c1n[nH]c2c1CCCC2,"inconclusive: 1.77 µM [inhibitor, full curve]",
C/C(CCc1ccc2c(c1)OCO2)=N\NC(=S)NC(C)C,,inactive: -2.82%
CCN(CC)c1ccc2cc(-c3nnc(-c4cccc(Cl)c4)o3)c(=O)oc2c1,active: 0.58 µM,
O=C(CCl)N1c2ccccc2Oc2ccc3ccccc3c21,"inconclusive: 12.5 µM [inhibitor, partial curve]",
CCOC(=O)C1=C(C)N(CC(C)C)C(=O)/C1=C\c1cccs1,"inconclusive: 16.4 µM [inhibitor, single point]",
CC(C)(C)C(=O)/C(=C/c1ccc(Cl)cc1)n1cncn1,,inactive: -2.57%
CCOc1ccc2nc(N3C(=O)/C(=C/c4ccc(Cl)cc4)NC3=S)sc2c1,"inconclusive: 14.6 µM [inhibitor, partial curve]",
COc1ccc(-n2cc3c(-c4cccc(Br)c4)nnc(C)c3n2)cc1,,inactive: -1.46%
CC(C)OC(=O)c1c2c(n3ccccc13)C(=O)c1ccccc1C2=O,active: 4.61 µM,
CC(=O)Nc1ccc(S(=O)(=O)Nc2nc3ccccc3nc2Nc2ccc3ccccc3c2)cc1,,inactive: 0.168%
Fc1cccc(F)c1/C=N/NC(=S)Nc1cccnc1,,inactive: -0.429%
CN(C)c1ccc(/C=C2\SC(=S)N(Nc3ncc(C(F)(F)F)cc3Cl)C2=O)cc1,active: 5.8 µM,
COc1cccc(CNCCSc2nnnn2C)c1OCc1ccc(F)cc1,,inactive: -0.625%
COc1ccc(C2C(C#N)=C(N)Oc3c2ccc2cccnc32)cc1OC (configuration not stated),"inconclusive: 1.98 µM [inhibitor, full curve, poor fit]",
COc1ccc(COc2cc(-c3cccc(OC)c3)nc3ccc(NC(=O)c4ccc(OC)cc4)cc23)cc1,"inconclusive: 3.14 µM [inhibitor, full curve]",

Structure (SMILES),Potency,max response
COc1ccc(NC(=O)C2Cc3c(-c4cccc(C(C)=O)c4)ccnc3O2)cn1 (configuration not stated),,inactive: -25.1%
O=C(O)c1ccccc1/C=N/Nc1ccc(S(=O)(=O)N2CCOCC2)cc1[N+](=O)[O-],,inactive: -0.875%
COc1ccc(C(C)(O)c2nc(-c3ccccc3OC)cs2)cc1 (configuration not stated),,inactive: -27.4%
CCN(C)c1ccc(/C=N\n2nnnc2N)cc1,"inconclusive: 5.59 µM [inhibitor, partial curve]",
CCN1CCc2c(sc(-n3cccc3)c2C(C)NC(=O)Nc2ccc(C(=O)OC)cc2)C1 (configuration not stated),,inactive: 0.47%
CC(Nc1oc(-c2ccc(COc3ccccc3)o2)nc1C#N)c1ccccc1 (configuration not stated),"inconclusive: 23.1 µM [inhibitor, single point]",
Cc1ccccc1OCC(=O)NNC(=O)Nc1ccc(Cl)cc1,"inconclusive: 3.53 µM [inhibitor, full curve]",
CC[n+]1ccc(/C=C2\Sc3ccccc3N2CCCS(=O)(=O)[O-])c2ccccc21,,inactive: -17.2%
COc1ccc(C(=O)/C=C/Nc2ccc([N+](=O)[O-])cc2C)c(OC)c1,active: 13 µM,
O=C(Cc1ccccc1)N/N=C/c1ccc(-c2ccc([N+](=O)[O-])cc2)o1,"inconclusive: 22.3 µM [inhibitor, single point]",
Cc1ccc(NC(=O)N2CC=C(c3c[nH]c4ccccc34)CC2)cc1Cl,"inconclusive: 29.1 µM [inhibitor, single point]",
O=C(N=c1ccn(-c2nc3ccccc3nc2NS(=O)(=O)c2ccccc2)cc1)c1cccs1,,inactive: -18.4%
O=C1/C(=C\c2cc([N+](=O)[O-])ccc2O)SC(=S)N1Cc1ccc(Cl)cc1,active: 20.6 µM,
Cc1ccc(C)c(NC(=O)N2CC=C(c3c[nH]c4ccccc34)CC2)c1,,inactive: -19.7%
NC(=O)c1c(Nc2nc3c(F)cccc3s2)sc2c1CCCC2,"inconclusive: 15.8 µM [inhibitor, partial curve]",
O=C(Cc1cc2ccccc2o1)NCc1ccc(F)cc1,,inactive: -14%
Cc1ccc(Cc2c(C3CCCCC3)nc3ccc(C)cn23)cc1,,inactive: -5.74%
Cc1noc(C)c1COc1ccc(C(=O)NNC(=O)c2ccccc2F)cc1,"inconclusive: 6.27 µM [inhibitor, partial curve]",
COc1ccc(C2=NOC(C(=O)NCc3ccc(F)cc3)C2)cc1OC (configuration not stated),"inconclusive: 0.79 µM [inhibitor, full curve]",
Cc1ccc2nc(/C(C#N)=C/c3ccc(-c4ccccc4C(=O)O)o3)[nH]c2c1,,inactive: -7.06%
Cc1cc(C)cc(NC2=NC3(CCCCC3)N=C(N)N2)c1,"inconclusive: 17.7 µM [inhibitor, partial curve]",
O=C(Nc1nc2ccc(S(=O)(=O)N3CCCC3)cc2s1)C1CCCCC1,"inconclusive: 2.23 µM [inhibitor, full curve, poor fit]",
CCn1ncc(/C=N\NC(=O)c2csc3ccccc23)c1C,"inconclusive: 1.98 µM [inhibitor, full curve]",
CC(=O)Nc1cc(-c2ccccc2CN(C)C)cn2c(-c3ccc(C(C)=O)cc3)cnc12,"inconclusive: 19.8 µM [inhibitor, single point]",

# Six entries out of the list, ordered by count of non-hydrogen atoms, high to low:
Structure (SMILES),Potency,max response
COc1ccc(C(=O)Nc2cccc(/C=C/c3nc4ccccc4c(=O)[nH]3)c2)cc1,active: 12.5 µM,
COc1ccc(C2C(C#N)=C(N)Oc3c2ccc2cccnc32)cc1OC (configuration not stated),"inconclusive: 1.98 µM [inhibitor, full curve, poor fit]",
O=C(Cc1ccccc1)N/N=C/c1ccc(-c2ccc([N+](=O)[O-])cc2)o1,"inconclusive: 22.3 µM [inhibitor, single point]",
Cc1ccc(S(=O)(=O)Nc2cc(Cl)c(O)c3ncccc23)cc1,,inactive: -26.9%
COC(=O)c1sccc1NC(=S)Nc1cc(C)cc(C)c1,,inactive: -0.135%
CC(C)(C)C(=O)/C(=C/c1ccc(Cl)cc1)n1cncn1,,inactive: -2.57%

# — PubChem BioAssay AID651814 (National Center for Advancing Translational Sciences (NCATS), 2012)
